Experimental data published in the supplement of paper PMC10735217.
Counter-ions that a name gives are not always drawn. The list shows a part of the results. Single values are uncertain here, since repeats match poorly.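 In a drug-repurposing library screen, luminescence reads luciferase driven by eight TEAD-binding elements, stably integrated into human kidney-derived cells. Compounds scoring over five robust Z scores above the plate mean are called hits.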

System: HEK293A TEAD-LUC reporter
Test: TEAD-luciferase reporter activity (YAP activation), robust Z score vs plate; higher = stronger YAP/TEAD activation
Conditions: 24 h

| Compound | TEAD-luciferase reporter activity (compound concentration: 200 nM) | TEAD-luciferase reporter activity (compound concentration: 2 uM) | TEAD-luciferase reporter activity (compound concentration: 10 uM) |
| --- | --- | --- | --- |
| CN(c1ccc(/C=C/C[C@H](NC(=O)c2c(F)cccc2F)C(=O)O)cc1)c1ncccn1 | inactive: 0.567 | inactive: -0.907 | inactive: 0.41 |
| O=S(=O)(O)c1ccccc1CO | inactive: -1.21 | inactive: -2.46 | inactive: 1.65 |
| N#CCC1(n2cc(-c3ncnc4[nH]ccc34)cn2)CN(C2CCN(C(=O)c3ccnc(C(F)(F)F)n3)CC2)C1 | inactive: -1.23 | inactive: -0.935 | inactive: -1.32 |
| CNC(=O)c1c(-c2ccc(F)cc2)oc2cc(N(Cc3ccc(B(O)O)c(F)c3)S(C)(=O)=O)c(C3CC3)cc12 | inactive: -1.52 | inactive: -1.72 | inactive: -1.59 |
| CCNCC1CCN(c2c(F)cc3c(=O)c(C(=O)O)cn(CC)c3c2F)C1 (configuration not stated) | inactive: 0.734 | inactive: 1.69 | inactive: 1.27 |
| O/N=C(\Nc1ccccc1)c1cccc(C(F)(F)F)c1 | inactive: 0.969 | inactive: -1.4 | inactive: -0.671 |
| C[C@@H](O)[C@H](NC(=O)C1CSSC[C@H](NC(=O)[C@H](N)Cc2ccccc2)C(=O)N[C@@H](Cc2ccc(O)cc2)C(=O)NC(Cc2c[nH]c3ccccc23)C(=O)NC(CCCCN)C(=O)N1)C(N)=O (some centres not stated) | inactive: -0.257 |  | inactive: 1.88 |
| O=C(Cc1cccs1)N[C@@H]1C(=O)N2C(C(=O)O)=C(CSc3nc[nH]n3)CS[C@H]12 | inactive: -0.111 | inactive: -0.735 | inactive: 0.296 |
| NC(=O)N1c2ccccc2COc2ccc(Cl)cc21 | inactive: 4.4 | inactive: -1.92 | inactive: -0.804 |
| CC(=O)O[C@@H]1CC[C@@]2(C)[C@@H](CC[C@]3(C)[C@@H]2C(=O)C=C2[C@@H]4[C@@H](C)[C@H](C)CC[C@]4(C)CC[C@]23C)[C@@]1(C)C(=O)O [Acetyl-11-keto-?-Boswellic Acid, Boswellia serrata] | inactive: -0.984 |  | inactive: 0.0318 |
| CC(=O)O[C@@H]1CC[C@@]2(C)[C@@H](CC[C@]3(C)[C@@H]2C(=O)C=C2[C@@H]4[C@@H](C)[C@H](C)CC[C@]4(C)CC[C@]23C)[C@@]1(C)C(=O)O |  | inactive: -0.944 |  |
| Oc1ccc(C2COc3cc(O)ccc3C2c2ccc(O)cc2)cc1 (configuration not stated) | inactive: -0.0698 | inactive: -0.0622 | inactive: 2.99 |
| O=C(O)COCCOCCN1CCC(=C(c2ccccc2)c2ccccc2)CC1 [Pibaxizine] | inactive: -1.81 | inactive: -0.781 | inactive: 0.264 |
| NCCCC[C@H](NC(=O)[C@@H]1CCCN1C(=O)[C@@H]1CSSC[C@H](NC(=O)CNC(=O)CNC(=O)CN)C(=O)N[C@@H](Cc2ccc(O)cc2)C(=O)N[C@@H](Cc2ccccc2)C(=O)N[C@@H](CCC(N)=O)C(=O)N[C@@H](CC(N)=O)C(=O)N1)C(=O)NCC(N)=O [Terlipressin] | inactive: -0.7 | inactive: -0.163 | inactive: 0.199 |
| CC(=O)Nc1cccc(-n2c(=O)n(C3CC3)c(=O)c3c(Nc4ccc(I)cc4F)n(C)c(=O)c(C)c32)c1 [Trametinib] | inactive: -0.765 |  | inactive: -1.9 |
| CC(=O)Nc1cccc(-n2c(=O)n(C3CC3)c(=O)c3c(Nc4ccc(I)cc4F)n(C)c(=O)c(C)c32)c1 [Trametinib dimethyl sulfoxide] |  | inactive: -1.89 |  |
| O=C(NCC1CCNCC1)c1cnc(Nc2cccc(Cl)c2)nc1C(F)(F)F | inactive: -1.15 | inactive: -0.402 | inactive: -0.63 |
| CC(C(=O)O)c1ccc2c(c1)[nH]c1ccc(Cl)cc12 (configuration not stated) [carprofen] | inactive: 1.73 | inactive: -2.38 | inactive: 2.69 |
| O=c1ccc2c(OCCCCOc3ccccc3)c3ccoc3cc2o1 | inactive: 0.642 | inactive: 1.67 | inactive: -0.997 |
| C=CCNc1nc(NCC=C)nc(N2CCN(C(c3ccc(F)cc3)c3ccc(F)cc3)CC2)n1 [almitrine bismesilate] | inactive: -0.394 | inactive: -1.51 | inactive: -0.902 |
| CC(=O)OCC(=O)[C@@]12OC3(CCCC3)O[C@@H]1C[C@H]1[C@@H]3CCC4=CC(=O)C=C[C@]4(C)[C@@]3(F)[C@@H](O)C[C@@]12C [amcinonide] | inactive: -0.112 | inactive: 0.899 | inactive: 1.9 |
| O=C(O)c1ccccc1-c1ccc(C(F)(F)F)cc1 | inactive: 1.36 | inactive: 0.659 | inactive: -1.75 |
| CN1CCc2ccccc2Oc2ccccc2CC1 | inactive: 0.0232 | inactive: -0.307 | inactive: -1.52 |
| CCc1c(Cl)c(O)c(Cl)c(O)c1C(=O)O[C@H]1[C@H](O)[C@H](OC)[C@H](OCC2=C/C=C/C[C@H](O)/C(C)=C\[C@H](CC)[C@@H](O[C@@H]3OC(C)(C)C(OC(=O)C(C)C)[C@H](O)[C@@H]3O)C(C)=CC(C)=CC[C@@H]([C@@H](C)O)OC2=O)O[C@@H]1C (some centres not stated) [fidaxomicin] | inactive: -1.79 | inactive: -1.01 | inactive: -0.317 |
| CCC(O)(CC)c1ccc(N2CCC(Cc3ccccc3N3CCN(C)CC3)C2=O)cn1 (configuration not stated) | inactive: 1.53 | inactive: -0.387 | inactive: -0.393 |
| CCCC(=O)c1cnc2c(OC)cccc2c1Nc1ccccc1C | inactive: -0.422 | inactive: 0.806 | inactive: 0.316 |

A few values from above:
TEAD-luciferase reporter activity (compound concentration: 2 uM) with CC(=O)O[C@@H]1CC[C@@]2(C)[C@@H](CC[C@]3(C)[C@@H]2C(=O)C=C2[C@@H]4[C@@H](C)[C@H](C)CC[C@]4(C)CC[C@]23C)[C@@]1(C)C(=O)O is entered as inactive: -0.944
TEAD-luciferase reporter activity (compound concentration: 10 uM) with O=C(Cc1cccs1)N[C@@H]1C(=O)N2C(C(=O)O)=C(CSc3nc[nH]n3)CS[C@H]12 is entered as inactive: 0.296

(continued)

| Compound | TEAD-luciferase reporter activity (compound concentration: 200 nM) | TEAD-luciferase reporter activity (compound concentration: 2 uM) | TEAD-luciferase reporter activity (compound concentration: 10 uM) |
| --- | --- | --- | --- |
| Cc1cccc2c(C3C(=O)NC(=O)C3c3nc(N4CCNC5(CC5)C4)cc4ccccc34)c[nH]c12 (configuration not stated) | inactive: 0.991 | inactive: -1.48 | inactive: -1.73 |
| NC1(C(=O)O)CC1 | inactive: 2.29 | inactive: -0.25 | inactive: 1.75 |
| CC(C)N1CCC(c2ccccc2)(c2ccccc2)CC1 | inactive: -0.204 | inactive: -0.783 | inactive: -0.0901 |
| O=C1Nc2ccccc2C(c2ccccc2)N1C1CCN(Cc2cccc(OC(F)(F)F)c2)CC1 (configuration not stated) [Afacifenacin fumarate] | inactive: 0.24 | inactive: -0.39 | inactive: 2.62 |
| CC(C)NC1CCC(c2ccccc2)(c2ccccc2)CC1 | inactive: -0.259 | inactive: -0.451 | inactive: 0.444 |
| CO[C@H]1O[C@@H]2O[C@]3(C)CC[C@H]4[C@H](C)CC[C@@H]([C@H]1C)[C@@]24OO3 [Artemether] | inactive: -2.01 | inactive: -0.897 | inactive: -1.12 |
| Cn1cc(NS(C)(=O)=O)c(=O)c2ccccc21 | inactive: -0.483 | inactive: -0.493 | inactive: -0.236 |
| CC(C)(C)NC(=O)c1ccc(Oc2cc(F)c(CC(=O)O)cc2Cl)c(NS(=O)(=O)c2ccc(C3CC3)cc2Cl)c1 | inactive: -0.542 | inactive: -0.179 | inactive: -0.864 |
| CN/C(=N\S(=O)(=O)c1ccc(C(F)(F)F)cc1)N1C[C@H](c2ccccc2)C(c2ccc(Cl)cc2)=N1 | inactive: -1.87 | inactive: 0.15 | inactive: -0.758 |
| NC(=O)c1ccn2c1CSC2c1cccnc1 (configuration not stated) | inactive: -2.05 | inactive: 1.18 | inactive: -0.302 |
| Cc1cc(F)ccc1Nc1ccc(C(=O)c2ccccc2C)c(Cl)c1 | inactive: -1.35 | inactive: -0.0446 | inactive: -0.575 |
| CC(C)(N)C(=O)N[C@H](CCCc1ccccc1)C(=O)N1CCC2(CC1)CN(S(C)(=O)=O)c1ccccc12 | inactive: -1.9 | inactive: 1.72 | inactive: -1.81 |
| CC(C)(Oc1ccc(Cl)cc1)C(=O)OCCOC(=O)c1cccnc1 [etofibrate] | inactive: -0.552 | inactive: -2.4 | inactive: -2.24 |
| CC(C)CN(C[C@@H](O)[C@H](Cc1ccccc1)NC(=O)[C@H](CC(N)=O)NC(=O)c1ccc2ccccc2n1)C(=O)NC(C)(C)C | inactive: -1.72 | inactive: -0.997 | inactive: 2.33 |
| N=C(N)Nc1nc(CSCCN/C=N/S(=O)(=O)c2ccc(Br)cc2)cs1 [Ebrotidine] |  | inactive: -0.324 |  |
| N=C(N)Nc1nc(CSCCN/C=N/S(=O)(=O)c2ccc(Br)cc2)cs1 | inactive: -0.673 | inactive: -1.39 | inactive: -0.74 |
| CC1(C)OB(O)c2cc(NC(=O)c3ccc(F)cc3C(F)(F)F)ccc21 | inactive: -0.766 | inactive: 1.24 | active: 6.03 |
| Cc1cnc(CNCC2(F)CCN(C(=O)c3ccc(F)c(Cl)c3)CC2)nc1 | inactive: 3.18 | inactive: 0.748 | inactive: 1.2 |
| C=CCNC(=O)c1c[nH]c2cccnc12 | inactive: -0.183 |  | inactive: 0.513 |
| CCC(=O)Nc1nnc(S(N)(=O)=O)s1 | inactive: -0.843 | inactive: -0.592 | inactive: 0.285 |
| Cc1ccc(C(=O)N2CCC3(CC2)NC(=O)c2ccccc2O3)cc1 | inactive: -0.79 |  | inactive: -1.06 |
| CCN1CC2CN(C)CC(C1)C2OC(=O)c1ccc(Cl)cc1 (configuration not stated) | inactive: 0.533 | inactive: -0.62 | active: 8.03 |
| Nc1ncc(-c2ccncc2)nc1Nc1ccc2[nH]ccc2c1 | inactive: 0.53 | inactive: -0.468 | inactive: -0.492 |
| C[N+](C)([O-])CCC=C1c2ccccc2CCc2ccccc21 [Amitriptylinoxide] | inactive: -0.515 | inactive: -0.275 | inactive: 1.03 |
| CN1CCN(c2c(F)cc3c(=O)c(C(=O)O)cn(CCF)c3c2F)CC1 [fleroxacin] | inactive: -0.608 | inactive: -0.945 | inactive: 0.767 |
